# In PubChem BioAssay AID1671190 (National Center for Advancing Translational Sciences (NCATS), 2021):
# Protein sequences, listed by entry. Tags and fused reporters are not part of them. Lines headed by an entry give the natural chain unless they say otherwise; changes in a name come on top.
# UniProt P18054: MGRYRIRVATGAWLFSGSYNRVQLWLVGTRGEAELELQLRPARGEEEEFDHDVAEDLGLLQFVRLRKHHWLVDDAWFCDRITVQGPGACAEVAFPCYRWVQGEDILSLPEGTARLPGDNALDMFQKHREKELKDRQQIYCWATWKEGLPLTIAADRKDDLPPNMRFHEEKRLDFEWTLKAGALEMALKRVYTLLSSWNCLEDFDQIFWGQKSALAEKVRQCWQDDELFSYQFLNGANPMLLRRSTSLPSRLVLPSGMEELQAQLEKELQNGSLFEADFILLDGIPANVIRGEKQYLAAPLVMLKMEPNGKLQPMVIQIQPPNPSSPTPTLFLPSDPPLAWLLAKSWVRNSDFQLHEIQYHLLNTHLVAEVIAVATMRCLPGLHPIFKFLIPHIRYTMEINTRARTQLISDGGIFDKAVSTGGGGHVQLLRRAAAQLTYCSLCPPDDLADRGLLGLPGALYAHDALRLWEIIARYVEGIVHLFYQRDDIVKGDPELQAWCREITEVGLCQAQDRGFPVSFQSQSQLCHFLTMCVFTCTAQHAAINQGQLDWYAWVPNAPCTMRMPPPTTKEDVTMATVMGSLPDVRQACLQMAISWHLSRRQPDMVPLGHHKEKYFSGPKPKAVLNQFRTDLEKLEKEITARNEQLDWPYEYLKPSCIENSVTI
# “And” between values parts separate entries of the source, which are not always exact repeats. Identical values can stand only once. Out of some 580,000 compounds screened, about 6,100 (1.1%) were called active. The shares of active, inactive and inconclusive entries below differ from those in the screen. Calls follow the shape of the dose curve; as a rule, active = well fitted inhibition curve with a large enough effect; inconclusive = small, poorly fitted or top-dose-only effect, or another doubt; inactive = no such curve, though single readings can be large or run the other way. A potency beside an inconclusive call is a rough fit, not a confirmed value.
# Target: Polyunsaturated fatty acid lipoxygenase ALOX12 (Homo sapiens) (UniProt P18054)
# Assay: Primary qHTS assay for inhibitors of human arachidonate 12S-lipoxygenase (ALOX12): Round 2
# Details: purified 12hLO, xylenol orange hydroperoxide absorbance; activity change, negative = inhibition: at 108 µM (top of the series) unless noted
# In short: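 Purified human 12hLO (150 nM final) in 25 mM Hepes, 0.01% Triton X-100, pH 7.0 was preincubated 15 min at room temperature with compound. Then 40 uM arachidonic acid was added, 30 min. Hydroperoxide was read by Fe-XO absorbance ratio 573/405 nm.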
# % is scaled to controls: 0 for no effect and ±100 for the full control effect; potency is read from the fitted curve at half-maximal effect.
Structure (SMILES),Potency,"activity change, negative = inhibition"
CN1CCCN(Cc2ccccc2C(F)(F)F)CC1,"inconclusive: 0.224 µM [inhibitor, full curve, poor fit]",–
O=C(O)CCCCC(CCSCc1ccccc1)SCc1ccccc1 (configuration not stated),"inconclusive: 8.63 µM [inhibitor, partial curve, poor fit]",–
CCOC(=O)N1CCN(C(=O)CN(c2cc(C)ccc2OC)S(=O)(=O)c2ccc(C)cc2)CC1,"inconclusive: 50.1 µM [inhibitor, partial curve, poor fit]",–
O=C(O)c1nnsc1-c1csnn1,"inconclusive: 56.2 µM [inhibitor, single point]",–
CCOc1cc(C=NN=C2c3ccccc3-c3ccccc32)ccc1O,"inconclusive: 79.4 µM [inhibitor, partial curve, poor fit]",–
CCCc1nnc(NC(=O)CNc2ccc(F)cc2)s1,"inconclusive: 14.1 µM [inhibitor, partial curve, poor fit]",–
COc1ccc(NC2=NC(C(=O)Nc3cc(Cl)ccc3OC)CC(=O)N2)cc1 (configuration not stated),"inconclusive: 63.1 µM [inhibitor, partial curve, poor fit]",–
CCC(=O)OC1c2ccccc2C(=O)N1Cc1ccccc1 (configuration not stated),–,inactive: 0.468%
CC(C)OC(=O)CSc1nc2ncc(Cl)cc2[nH]1,–,inactive: 9.4%
Cc1ccc(-c2nc(CN3CCN(C(=O)c4ccco4)CC3)c(C)o2)cc1,"inconclusive: 112 µM [inhibitor, single point]",–
CCC(=O)N(Cc1ccco1)Cc1cc2cc3c(cc2[nH]c1=O)OCO3,"inconclusive: 25.1 µM [inhibitor, partial curve, poor fit]",–
Cc1ccccc1OCC(=O)Nc1ccc2c(c1)nc(Cn1cccn1)n2CC(C)C,"inconclusive: 35.5 µM [inhibitor, single point]",–
COCC(C)NC(=O)C1=CC(c2cccs2)=NS(=O)(=O)N1C (configuration not stated),–,inactive: 3.42%
CNC(=O)[C@@H]1CN(C(=O)Cc2c(F)cccc2Cl)C[C@H]1COC,–,inactive: 38%
O=S1(=O)CCC(NC(=S)NC2CCS(=O)(=O)C2)C1 (configuration not stated),–,inactive: -24.5%
C/C(CC(=O)Nc1cccc(Br)c1)=N\NC(=O)c1ccc(O)cc1O,"inconclusive: 39.8 µM [inhibitor, partial curve, poor fit]",–
CCOC(=O)c1cn[nH]c1S(=O)(=O)N1CCCC(C)C1 (configuration not stated),active: 11.2 µM,–
CC1=C(C(=O)Nc2cccc(C)c2C)C(c2ccc(C)cc2)NC(=O)N1 (configuration not stated),"inconclusive: 112 µM [inhibitor, single point]",–
O=C1[C@H]2[C@@H](c3ccccc3)N[C@]3(CCCN(Cc4ccco4)C3=O)[C@H]2C(=O)N1Cc1ccccc1,"inconclusive: 100 µM [inhibitor, single point]",–
Cc1ccc(C(=O)N2CCC3(CC2)CC(=O)c2ccc(Cl)cc2O3)cc1,"inconclusive: 35.5 µM [inhibitor, partial curve]",–
CCOc1ccccc1CNC(=O)C1CCCN(S(=O)(=O)c2ccc3c(ccn3C)c2)C1 (configuration not stated),–,inconclusive: -32.6% [inhibitor]
Cc1ccc(S(=O)(=O)Cn2nnnc2CN2CCCC3(CCCCC3)C2)cc1,"inconclusive: 31.6 µM [inhibitor, partial curve]",–
O=C(O)CCc1ccc(Cl)cc1Cl,–,inactive: -41.2%

Structure (SMILES),Potency,"activity change, negative = inhibition"
O=[N+]([O-])c1ccc(/C=[N+](\[O-])[C@@H]2CCCC[C@@H]2/[N+]([O-])=C/c2ccc([N+](=O)[O-])o2)o1,"inconclusive: 39.8 µM [inhibitor, partial curve, poor fit]",–
O=C(CN1CCN(C(=O)c2cccs2)CC1)NC1CCCCC1,"inconclusive: 35.5 µM [inhibitor, partial curve, poor fit]",–
COC(=O)c1sc2cccc(F)c2c1S(=O)(=O)N1CCN(c2ccc(C)cc2C)CC1,"inconclusive: 112 µM [inhibitor, single point]",–
COCCn1nnnc1C(c1ccc(OC)cc1)N1CCN(c2ccccc2F)CC1 (configuration not stated),"inconclusive: 11.2 µM [inhibitor, partial curve, poor fit]",–
COc1ccccc1NC(=O)Cn1cncc1-c1ccc([N+](=O)[O-])cc1,"inconclusive: 0.282 µM [inhibitor, full curve, poor fit]",–
Cc1nn(C)cc1CN(C)C(=O)Cn1nc(C(F)(F)F)c(Cl)c1C,–,inactive: 12.6%
COc1ccccc1C(C)NC(=O)c1nn(C)c(=O)c2ccccc12 (configuration not stated),–,inactive: 0.308%
Nc1nc(SCC(=O)Nc2ccc([N+](=O)[O-])cc2)[nH]c(=O)c1NC(=O)c1ccc(Br)cc1,"inconclusive: 44.7 µM [inhibitor, partial curve, poor fit]",–
COc1ccccc1N1CCN(c2cc(C)nc3nc(-c4ccc(Cl)cc4)nn23)CC1,"inconclusive: 35.5 µM [inhibitor, partial curve, poor fit]",–
CCOc1cccc2cc(-c3csc(NC(=O)CCC(=O)NCCN4CCCCC4C)n3)c(=O)oc12 (configuration not stated),–,inactive: -6.84%
C=CC[C@H](CC(=O)N[C@H](CO)Cc1ccccc1)C(=O)N[C@@H](COC(=O)[C@@H](CC=C)CC(=O)OC(C)(C)C)Cc1c[nH]c2ccccc12,"inconclusive: 89.1 µM [inhibitor, single point]",–
O=C1C(c2ccccc2)=S=C2c3ccccc3C=CN12,"inconclusive: 0.562 µM [inhibitor, full curve, poor fit]",–
Cn1c(Cc2ccc(Cl)cc2)nnc1SCC(=O)NC1CC1,"inconclusive: 126 µM [inhibitor, single point]",–
CN(C)c1ccc(/C=N/NC(=O)c2ccc(Cl)cc2)cc1,–,inactive: -20.4%
COc1ccc(CCNC(=O)C2CC(=O)N(C3CCCCCCC3)C2)cc1OC (configuration not stated),–,inactive: -22.1%
Cn1nnnc1SCCNCc1ccc(OCc2ccc(Cl)cc2)cc1,"inconclusive: 56.2 µM [inhibitor, partial curve, poor fit]",–
CCc1ccc(CNC(=O)CN2C(=O)CCn3nc(-c4cn(C)c5ccccc45)cc32)cc1,"inconclusive: 112 µM [inhibitor, partial curve, poor fit]",–
Cc1nc2nc(SCC(=O)c3ccc(F)cc3)[nH]c2cc1Br,–,inactive: -0.268%
CC(=O)N/C(=C\c1ccccc1)C(=O)O,"inconclusive: 50.1 µM [inhibitor, partial curve, poor fit]",–
CCOc1ccc(S(=O)(=O)Nc2ccc(F)cc2)c(C)c1C,"inconclusive: 39.8 µM [inhibitor, partial curve, poor fit]",–
Cc1ccc(CNC(=O)Nc2ccc(F)cc2)n1C,"inconclusive: 39.8 µM [inhibitor, single point]",–
Cc1cc(S(=O)(=O)N2CCC(NC(=O)C34CC5CC(CC(C5)C3)C4)CC2)ccc1-n1cnnn1,–,inactive: -10.2%
Cc1ccc(C(=O)/C=C/c2ccc(-c3ccccc3[N+](=O)[O-])o2)cc1,–,inactive: -6.19%

Structure (SMILES),Potency,"activity change, negative = inhibition"
CC1CN(C)CCC1NC(=O)Cc1cccc(C(F)(F)F)c1 (configuration not stated),"inconclusive: 112 µM [inhibitor, single point]",–
Cc1cccc(C)c1NC(=O)CN(C)C(=O)CSc1nccn1-c1ccc(Br)cc1,"inconclusive: 44.7 µM [inhibitor, partial curve, poor fit]",–
Cc1cccc(NC(=S)NC(=O)c2cc(-c3ccccc3)nc3ccccc23)c1,"inconclusive: 25.1 µM [inhibitor, partial curve]",–
Cc1ccc(CN2C(=O)c3ccccc3Sc3ccc(C(=O)NCCCN4CCOCC4)cc32)cc1,"inconclusive: 56.2 µM [inhibitor, partial curve, poor fit] and inconclusive: 50.1 µM [inhibitor, partial curve, poor fit]",–
Cc1ccc(N(CC(=O)Nc2c(C)n(C)n(-c3ccccc3)c2=O)S(C)(=O)=O)c(C)c1,–,inactive: -14.4%
Cc1cc(Cl)ccc1OCc1cc(=O)n2c3c(sc2n1)CCCC3,"inconclusive: 6.31 µM [inhibitor, full curve, poor fit]",–
c1ccc(-c2nnc3ccc(N4CCC5(CC4)OCCO5)nn23)cc1,–,inactive: 4.84%
Oc1ccccc1CNC1(Cc2cc(-c3ccc(F)cc3)on2)COC1,"inconclusive: 28.2 µM [inhibitor, full curve]",–
O=c1ccc2ccc(OS(=O)(=O)c3ccc4c(c3)CCCC4)cc2o1,"inconclusive: 20 µM [inhibitor, full curve, poor fit]",–
CCn1c(COc2cccc(C)c2C)nnc1SCC(=O)N1CCN(c2ccc(OC)cc2)CC1,–,inactive: 0%
C(=C\c1ccccc1)/CN1CCN(C(CCc2ccccc2)c2nnnn2-c2ccc3c(c2)OCCO3)CC1 (configuration not stated),"inconclusive: 44.7 µM [inhibitor, partial curve, poor fit]",–
CCCCn1c(-c2ccoc2C)n[nH]c1=S,"inconclusive: 50.1 µM [inhibitor, partial curve, poor fit]",–
CC(C)C(NC(=O)COc1ccc2ccccc2c1)C(=O)N/N=C/C=C/c1ccccc1 (configuration not stated),active: 8.91 µM,–
Cc1ccc(Cc2c(-c3ccc(C#N)cc3)nc3ccc(Br)cn23)cc1,active: 20 µM,–
O=C(CSC1CCCC1)NCCc1cccs1,–,inactive: -0.971%
COc1ccc(/C(C)=N/NC(=S)NCCc2ccccc2)cc1,–,inactive: 0%
Cc1cc(C)cc(N(C)S(=O)(=O)c2nnc(NC(=O)C(C)C)s2)c1,"inconclusive: 89.1 µM [inhibitor, single point]",–
Cc1oc(-c2ccccc2)nc1CC(=O)Nc1ccc(Br)cc1F,"inconclusive: 100 µM [inhibitor, single point]",–
O=C(CNC(=O)c1ccc2c(c1)OCO2)Nc1ccc2c(c1)Cc1ccccc1-2,–,inactive: -18.4%
Nc1ncc(Br)cc1Br,–,inactive: 11.5%
COc1ccccc1/C=C/c1nc(C#N)c(NCc2ccco2)o1,"inconclusive: 44.7 µM [inhibitor, partial curve, poor fit]",–
